Test results as given in PubChem BioAssay AID2417 (National Center for Advancing Translational Sciences (NCATS), 2010).
Among all 140,000 compounds or so, about 4,300 (3.1%) were called active. Inconclusive means that the source gave no clear call. Such entries were picked first, then a sample of the others.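 The calls were made as follows: active = readout at or below -70, meaning at least 70% loss of cells showing the perinucleolar compartment, a nuclear body marking cancer cells; inconclusive = readout between -30 and a set limit; inactive = the rest.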

experiment: High Content Assay for Compounds that inhibit the Assembly of the Perinucleolar Compartment; details: PC3M PTB-GFP, PNC prevalence imaging, 16 h; at 10 µM; hits give low values;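 also: plate controls were DMSO wells for no effect and camptothecin positive control wells for full effect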
How it was run: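 Compounds are pinned in duplicate onto adhered PC3M cells stably expressing GFP-tagged PTB and incubated 16 h at 37 C. Cells are then fixed, nuclei stained with Hoechst, and PNC-positive cells counted.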

Row | Compound | activity change (PNC), negative = inhibition
1 | O=C(c1ccco1)N1CCN(Cc2cccc(F)c2)CC1 | inconclusive: -44.6%
2 | C/C(=N\OC(=O)c1ccc(F)cc1)c1nccs1 | inconclusive: -65.1%
3 | O=C(CCNC(=O)Cn1ccc2ccccc2c1=O)NCCCN1CCN(c2ccc(F)cc2)CC1 | inconclusive: -36.1%
4 | O=C(NCc1ccccn1)c1ccc(CS(=O)(=O)Cc2ccc(Cl)cc2)o1 | inconclusive: -53.3%
5 | N#C/C(=C\c1ccccc1[N+](=O)[O-])c1nc(C2CC2)cs1 | inactive: 42.8%
6 | COc1ccc(C2C(C(=O)Nc3cccnc3)=C(C)Nc3nc(-c4cccs4)nn32)cc1OC (centres undefined) | active: -108%
7 | C=CCN(C(=O)CCC(=O)O)C1CC(=O)N(c2ccc(OCCC)cc2)C1=O (centres undefined) | inconclusive: -34.8%
8 | Cc1ccc(NC(=O)c2nc[nH]c2C(=O)N2CCCCC2)c(C(=O)c2ccccc2)c1 | inconclusive: -38.9%
9 | CCOc1ccc2[nH]c(=O)c(CN(Cc3cccnc3)C(=O)Nc3ccccc3OC)cc2c1 | inconclusive: -48.5%
10 | CCOC(=O)CSC1=N/C(=C\c2ccc(OC)c(OC)c2)C(=O)N1C | inactive: 28%
11 | CC(=O)Nc1ccc(C)cc1NC(C)=O | inconclusive: -39%
12 | CCn1c(SCC(=O)NC(C)c2ccccc2)nc2ccccc21 (centres undefined) | inconclusive: -57.7%
13 | O=C(Nc1ccc2nc3n(c(=O)c2c1)CCCC3)c1cc([N+](=O)[O-])ccc1F | inconclusive: -32.5%
14 | COc1cc2c(cc1OC)C(=O)CC(C)S2 (centres undefined) | inconclusive: -66.3%
15 | CC1(C)Cc2c(ccc3ccccc23)C(c2cc3ccccc3oc2=O)=N1 | inconclusive: -33.9%
16 | CC1CCN(C(=O)C(Cc2ccccc2)NS(=O)(=O)c2ccc3c(c2)oc(=O)n3C)CC1 (centres undefined) | inconclusive: -43.8%
17 | COc1cc(Br)cc(C=Nc2cccc(C(F)(F)F)c2)c1O | inconclusive: -38.3%
18 | O=[N+]([O-])c1ccc(N2CCN(S(=O)(=O)c3ccc4ccccc4c3)CC2)cc1NCC1CCCO1 (centres undefined) | inactive: 17.1%
19 | COc1ccc(CCC(=O)NCCCNC(=O)CCc2ccc(OC)cc2)cc1 | inactive: 12.1%
20 | CC12CCC(C(=O)NCc3ccc4c(c3)OCO4)(C(=O)C1=O)C2(C)C (centres undefined) | inactive: 35.7%
21 | NNS(=O)(=O)c1ccc(Cc2ncc(C(F)(F)F)cc2Cl)s1 | inconclusive: -37.6%
22 | CCC1CCCCN1Cc1nc2c(c(=O)n(C)c(=O)n2C)n1CCCc1ccccc1 (centres undefined) | inconclusive: -36.7%
23 | CCC(C)(C)NC(=O)CN(C(=O)CNS(=O)(=O)c1ccccc1)c1ccccc1 | inconclusive: -37.2%

Row | Compound | activity change (PNC), negative = inhibition
24 | CCOC(=O)c1[nH]c(CSc2nnnn2-c2ccccc2C)c(C(=O)OCC)c1C | inconclusive: -71.7%
25 | CCn1c(CNc2ccc(OC)cc2)nnc1SCC(=O)N1CCCc2ccccc21 | inactive: -3.56%
26 | CC1=NN(C(C#N)c2cccc([N+](=O)[O-])c2)C(C)(C)C1 (centres undefined) | inconclusive: -46.6%
27 | Cc1ccccc1OCC(=O)Nc1ccc(Cc2ccncc2)cc1 | inconclusive: -50.2%
28 | O=C1c2ccccc2C(=O)N1c1ccc(-c2nc3ccccc3o2)cc1 | inconclusive: -35.1%
29 | Clc1ccc(OCc2nc(-c3ccc(Br)o3)no2)cc1 | inactive: 3.84%
30 | COc1ccc([N+](=O)[O-])cc1NC(=O)C(C)Sc1ccccc1 (centres undefined) | inconclusive: -30.7%
31 | CC(=O)c1c(C)n(C)c2ccc(OC(=O)c3ccco3)cc12 | inconclusive: -58%
32 | COc1ccc(OC)c(NC(=O)CSc2nnnn2-c2ccccc2F)c1 | inconclusive: -30.1%
33 | CCOC(=O)C(=O)/C(=C\N(C)C)c1onc(-c2ccccc2Cl)c1C(=O)OC | inconclusive: -70.7%
34 | O=C(Nc1cccc(C(F)(F)F)c1)N1CCN(C(=O)Nc2cccc(C(F)(F)F)c2)CC1 | inconclusive: -34.1%
35 | Cn1c(C(=O)N2CCN(C(=O)c3ccco3)CC2)cc2c(=O)n3ccccc3nc21 | inconclusive: -65.3%
36 | CC1=C(C(=O)OCc2ccccc2)C(c2ccc(C)o2)C2=C(CCCC2=O)N1 (centres undefined) | inconclusive: -37.1%
37 | c1ccc(-c2nc(CSc3n[nH]c(-c4cccs4)n3)cs2)cc1 | inconclusive: -44.6%
38 | COc1cccc(NC(=O)CC2(CC(=O)O)CCCC2)c1 | inactive: 12%
39 | CCOc1ccc(C(=O)Nc2ccc(-c3nc4ccccc4[nH]3)cc2)cc1[N+](=O)[O-] | active: -116%
40 | CCN(Cc1ccccc1)C(=O)Cn1cc2c(n1)CCCC2 | inconclusive: -54.2%
41 | Cc1ccc(CNC(=O)C2CCCN(Cc3cnn(-c4ccccc4)c3-n3cccc3)C2)cc1 (centres undefined) | inconclusive: -54.1%
42 | Nc1nnnn1/N=C/c1ccccn1 | inconclusive: -45.6%
43 | CN(Cc1ccccc1)C(=O)CCc1ccccc1 | inconclusive: -56.6%
44 | Cc1ccc2c(N)c(C(=O)N(c3ccccc3)c3ccccc3)sc2n1 | inconclusive: -35.6%
45 | COc1cc2cc(CN(CCO)C(=O)c3cccs3)c(=O)[nH]c2cc1OC | inconclusive: -73%
46 | Cn1c(CSCc2ccc(Cl)cc2)nnc1SCC(=O)Nc1nc2ccccc2s1 | inactive: -21.4%

Row | Compound | activity change (PNC), negative = inhibition
47 | CCc1ccc(NC2=NC(C(=O)NC3CCCCC3)CC(=O)N2)cc1 (centres undefined) | inconclusive: -64.6%
48 | CCN1C(=O)/C(=C2/C(=O)N3c4c(cc(OC(C)=O)cc42)C(C)=CC3(C)C)SC1=S | inconclusive: -38.9%
49 | O=P(O)(CCc1ccccc1)CN1CCCCC1 | active: -82.4%
50 | CCOC(=O)Nc1sc(NS(=O)(=O)c2ccc(C)cc2)nc1C | inactive: 25.8%
51 | CCCCNc1ccc(S(N)(=O)=O)cc1[N+](=O)[O-] | active: -113%
52 | O=C(NCc1ccco1)c1ccc2c(c1)C(=O)N(Cc1ccccc1)C2=O | inconclusive: -56.1%
53 | O=C(Cn1nc(C(F)(F)F)c2c1CCC2)N1CCN(c2ccccc2)CC1 | inconclusive: -31.5%
54 | O=C(Cc1cccs1)N1CCN(C(=O)C2CCCO2)CC1 (centres undefined) | active: -120%
55 | Cc1nn(-c2ccccc2)c2sc(C(=O)OCC(=O)N3CCCCC3)cc12 | inconclusive: -44.6%
56 | Cc1ccc(/C=[N+](/[O-])C2SC(=S)N(C)C2(C)C)cc1 (centres undefined) | inactive: 25.6%
57 | Cc1ccc(CNC(=O)Cn2c([N+](=O)[O-])cnc2C)cc1 | inconclusive: -40.2%
58 | CC(C)COc1ccc2[nH]c3c(c2c1)CCCC3=O | inactive: 39.5%
59 | CCOC(=O)CN1C(=O)C(CC)Oc2ccccc21 (centres undefined) | inconclusive: -63.8%
60 | CCCOc1ccc2c3c(c(=O)oc2c1)CCCC3 | inconclusive: -51.6%
61 | Cc1ccc(-n2nnnc2SCC(=O)N2CCc3ccccc3C2)c(C)c1 | inconclusive: -45.2%
62 | CCCCC1OC23CCCCC2C(C#N)(C(=N)O3)C1(C#N)C#N (centres undefined) | inactive: -9.32%
63 | O=C(N/N=C/c1c(O)ccc2ccccc12)c1cccc(C(F)(F)F)c1 | active: -93%
64 | COCCN1C(=O)/C(=C/c2ccc(Oc3ccc([N+](=O)[O-])cn3)c(OC)c2)SC1=Nc1ccccc1 | inconclusive: -30.7%
65 | Cc1ccc(N2C(=O)c3ccccc3C2Nc2ccc(S(=O)(=O)N3CCCCC3)cc2)nc1 (centres undefined) | inactive: -19%
66 | CC1CCCN(C(=O)C2CCN(CCCc3ccccc3)CC2)C1 (centres undefined) | inactive: -28.4%
67 | Cc1nc(CCNC(=O)c2cccs2)cs1 | inconclusive: -32.1%
68 | Cc1ccc(S(=O)(=O)/N=C(\Nc2cccc(C)c2)Nc2nc(C)cc(C)n2)cc1 | inactive: -6.83%
69 | COc1ccc(CN(C(=O)c2ccc(-c3ccccc3)[nH]2)C(C(=O)NCC2CCCO2)c2ccc(C)o2)cc1 (centres undefined) | inactive: 74.3%

Row | Compound | activity change (PNC), negative = inhibition
70 | Cc1cc(C)nc(NS(=O)(=O)c2ccc(Br)s2)c1 | inconclusive: -48.3%
71 | CC1CCN(S(=O)(=O)c2ccc(S(=O)(=O)NCc3ccccc3)cc2)CC1 | inconclusive: -32.2%
72 | Cc1cc2c(=O)n(CC(=O)N3CCN(c4ccccc4)CC3)cnc2s1 | active: -122%
73 | C/C(=N\Nc1nc(-c2ccccc2)cs1)c1cccs1 | inactive: 17.7%
74 | COc1ccc(NC(=O)C2CC(=O)OC2(C)C)cc1 (centres undefined) | inconclusive: -49%
75 | Cc1c(C(=O)Nc2ccccc2)cn2c(nc3ccccc32)c1C#N | active: -80.1%
76 | O=C(Nc1cccc2cccnc12)c1cccnc1 | active: -85.3%
77 | Cc1ccc(C(=O)Oc2ccccc2N2C(=O)C3CCCCC3C2=O)cc1 (centres undefined) | inactive: -3.69%
78 | COc1ccc(NC(=S)N2CCCC2)cc1 | inconclusive: -34%
79 | CC12CCC(C(=O)NCCCN3CCOCC3)(OC1=O)C2(C)C (centres undefined) | inconclusive: -47.1%
80 | COc1ccc(CCNC(=O)C/C(C)=N/NC(=O)C23CC4CC(CC(C4)C2)C3)cc1OC | inconclusive: -64.8%
81 | Cc1nccc(-c2ccc(-n3cnc4ccccc43)cc2)n1 | inconclusive: -43.2%
82 | CC(=O)c1nn(-c2cccc(Br)c2)cc1C(=O)c1cccc2ccccc12 | inconclusive: -37.6%
83 | CCn1nnnc1SCC(=O)Nc1ccc2c(c1)OCCO2 | inactive: -14.4%
84 | CCOc1ccc(-c2nnc(NC3=NCCCCC3)o2)cc1 | inconclusive: -34.4%
85 | COc1ccc(C2SCCN2S(=O)(=O)c2ccccc2)cc1OC (centres undefined) | inactive: -9.05%
86 | CCOC(=O)c1c(NC(=O)CSc2nc3c(c(=O)n(C)c(=O)n3C)n2C(C)C)sc(C)c1C | inconclusive: -33%
87 | Cc1ccc(NC(=O)CCNC(=O)c2ccccc2Cl)cc1S(=O)(=O)N(C)C | inconclusive: -34.8%
88 | COc1ccc(CCNC(=O)CC2Oc3ccc(Cl)cc3NC2=O)cc1OC (centres undefined) | inconclusive: -42.8%
89 | CCOC(=O)Cc1csc(NC(=O)c2cccnc2)n1 | inconclusive: -45.8%

Reprinted from the entries so far, 3 compounds:
Row | Compound | activity change (PNC), negative = inhibition
66 | CC1CCCN(C(=O)C2CCN(CCCc3ccccc3)CC2)C1 (centres undefined) | inactive: -28.4%
67 | Cc1nc(CCNC(=O)c2cccs2)cs1 | inconclusive: -32.1%
68 | Cc1ccc(S(=O)(=O)/N=C(\Nc2cccc(C)c2)Nc2nc(C)cc(C)n2)cc1 | inactive: -6.83%
